# Tests used:
# [1] = system: prostate cancer cell line (PC-3); assay: MTT anticancer activity, PC-3; type: cell-based, human; details: for PC-3 LE: ligand efficiency from IC50 and number of heavy atoms; for PC-3 LLE: ligand lipophilic efficiency, potency in terms of lipophilicity; for PC-3 SI: selectivity index, Wi-38 versus PC-3
# Protocol: (§1) Anticancer effect of the above-mentioned compounds was evaluated using four human cancer cell lines. Colon cancer cells (Caco-2), myeloid leukaemia cell line (NFS-60), liver cancer cell line (HepG-2) and prostate cancer cell line (PC-3) using MTT method was used for assaying cell viability[26] (Supplementary Page S55).
# (§2) All final compounds were evaluated against four human cancer cell lines namely; liver cancer (HepG2) (ATCC® HB-8065™), colon cancer (Caco-2) (ATCC® HTB-37™), leukaemia cancer (NFS-60) (ATCC® CRL-1838™), and prostate cancer (PC-3) (ATCC® CRL-1435™) using doxorubicin (Dox) as the reference drug being widely used in tumour management utilising microculture MTT assay, declared by Mosmann[26] (Table 1 in Supplementary Material, Figures 5–8). […]
# (§3) MTT method was used for assaying cell viability 25. Twenty microliters of 5 mg/ml MTT (Sigma, USA) was added to each well and the plate was incubated at 37 °C for 3 h. Then MTT solution was removed, 100 µl DMSO was used and the absorbance of each well was measured with a microplate reader ( BMG LabTech, Germany) at 570 nm. The effective concentration (IC 50) and safe dose (EC100) values of the tested compounds that cause 50% and 100% cell viability were estimated by the Graphpad Instat software.
# (§4) Determination of the anticancer activity
# (§5) Anticancer effect of the above-mentioned compounds was evaluated using four human cancer cell lines. Colon cancer cells (Caco-2) were maintained in DMEM (Lonza, USA) containing 10% FBS while myeloid leukemia cell line (NFS-60), liver cancer cell line (HepG-2) and prostate cancer cell line (PC-3) were cultured in RPMI-1640 (Lonza, USA) supplemented with 10% FBS. All cancer cells (5x10^3 cells/well) were seeded in sterile 96-well plates. After 24h, serial concentrations of the tested compounds and Dox were incubated with four cancer cell lines for 72 h at 37 °C in 5% CO2 incubator. MTT method was done as described above. The Graphpad Instat software was used for calculating the half maximal inhibitory concentration (IC50) values. Furthermore, phase contrast inverted microscope with a digital camera (Olympus, Japan) was used for investigating […]
# (§6) safest anticancer compounds. […]
# [2] = system: myeloid leukaemia cell line (NFS-60); assay: MTT anticancer activity, NFS-60; type: cell-based; details: selectivity index, Wi-38 versus NFS-60
# Protocol: as §1, §2, §3, §4, §5, §6
# [3] = system: liver cancer cell line (HepG-2); assay: MTT anticancer activity, HepG-2; type: cell-based, human; details: selectivity index, Wi-38 versus HepG-2
# Protocol: as §1, §2, §3, §4, §5, §6
SMILES,PC-3 LE [1],PC-3 LLE [1],PC-3 SI [1],NFS-60 SI [2],HepG-2 SI [3]
"COc1ccc2nc(N3CCCCC3)c(-c3cc(-c4cccc(O)c4)nc(S)c3C#N)cc2c1 [6e, 6-(3-Hydroxyphenyl)-4-(6-methoxy-2-(piperidin-1-yl)quinolin-3-yl)-2-mercaptopyridine-3-carbonitrile]",0.30,2.53,3.613,2.876,12.705
"COc1ccc(NC(=O)COc2nc(-c3cccc(O)c3)cc(-c3cc4cc(OC)ccc4nc3N3CCOCC3)c2C#N)cc1 [11i, 2-((3-Cyano-6-(3-hydroxyphenyl)-4-(6-methoxy-2-morpholin-4-yl-quinolin-3-yl)pyridin-2-yl)oxy)-N-(4-methoxyphenyl)acetamide]",,,4.069,0.493,5.309
"N#Cc1c(-c2cc3cc(Cl)ccc3nc2N2CCOCC2)cc(-c2cccc(O)c2)nc1OCC(=O)Nc1ccccc1 [11d, 2-((4-(6-Chloro-2-morpholin-4-yl-quinolin-3-yl)-3-cyano-6-(3-hydroxyphenyl)pyridin-2-yl)oxy)-N-phenylacetamide]",,,1.801,1.154,2.336
"N#Cc1c(-c2cc3ccccc3[nH]c2=O)cc(-c2cccc(O)c2)nc1S [14a, 6-(3-Hydroxyphenyl)-2-mercapto-4-(2-oxo-1,2-dihydroquinolin-3-yl)pyridine-3-carbonitrile]",0.39,5.10,17.798,12.888,23.543
"N#Cc1c(-c2cc3cc(Cl)ccc3nc2N2CCOCC2)cc(-c2cccc(O)c2)[nH]c1=O [5b, 4-(6-Chloro-2-morpholin-4-yl-quinolin-3-yl)-6-(3-hydroxyphenyl)-2-oxo-1,2-dihydropyridine-3-carbonitrile]",0.31,3.52,6.552,18.348,32.386
"N#Cc1c(-c2cc3cc(Cl)ccc3nc2N2CCCCC2)cc(-c2cccc(O)c2)[nH]c1=O [5e, 4-(6-Chloro-2-(piperidin-1-yl)quinoline-3-yl)-6-(3-hydroxyphenyl)-2-oxo-1,2-dihydropyridine-3-carbonitrile]",,,0.675,0.440,0.764
"N#Cc1c(-c2cc3ccccc3nc2N2CCOCC2)cc(-c2cccc(O)c2)nc1OCC(=O)O [9a, 2-((3-Cyano-6-(3-hydroxyphenyl)-4-(2-morpholin-4-yl-quinolin-3-yl)pyridin-2-yl)oxy)acetic acid]",,,1.877,1.723,2.033
"N#Cc1c(-c2cc3ccccc3[nH]c2=O)cc(-c2cccc(O)c2)nc1N [15a, 2-Amino-6-(3-hydroxyphenyl)-4-(2-oxo-1,2-dihydroquinolin-3-yl)pyridine-3-carbonitrile]",,,0.835,0.818,1.870
"COc1ccc2[nH]c(=O)c(-c3cc(-c4cccc(O)c4)[nH]c(=O)c3C#N)cc2c1 [13c, 6-(3-Hydroxyphenyl)-4-(6-methoxy-2-oxo-1,2-dihydroquinolin-3-yl)-2-oxo-1,2-dihydropyridine-3-carbonitrile]",0.36,5.29,1.547,3.955,9.231
"N#Cc1c(-c2cc3ccccc3[nH]c2=O)cc(-c2cccc(O)c2)[nH]c1=O [13a, 6-(3-Hydroxyphenyl)-2-oxo-4-(2-oxo-1,2-dihydroquinolin-3-yl)-1,2-dihydropyridine-3-carbonitrile]",0.39,5.37,1.275,2.833,10.714

# From paper PMC9848351, “Discovery of new pyridine-quinoline hybrids as competitive and non-competitive PIM-1 kinase inhibitors with apoptosis induction and caspase 3/7 activation capabilities” (Journal of Enzyme Inhibition and Medicinal Chemistry, 2023)
